Experimental data published in PubChem BioAssay AID330 (DTP/NCI, 2004).
The list is a part of this screen's results and no random one: it gathers tests that were run many times, whatever their T/C, doses with no T/C, and many T/C values between a quarter and a half above the control. Further doses and runs are listed elsewhere. T/C is the treated group as % of the vehicle group. Some entries give survivors of the animals treated and no T/C: the source files T/C as zero there, which appears to mark a toxic dose or a test without result, not a measured value. Some doses without a T/C left all or most animals alive at the check, yet need not have been tolerated: the source hardly ever lists a survival T/C far under the control, and the zero likely stands for such cases as well. Survivors were counted at the toxicity check, usually on the fifth day, unless a day is given; later deaths do not show. Schedules are NCI's codes, taken here to give the interval after Q, in days (D) or hours (H), and the number of doses after X. Marks such as (2×) stand for listed records that agree. Some entries hold several experiments; the values are given in rising order. Where survival is the endpoint, the PubChem record calls one and a half times the control and up active, and a quarter to a half above the control has no call in these data; cut-offs in other NCI protocols can differ. Some T/C values are followed by the survivors on the day toxicity was checked, most often the fifth; without a count, all were alive then.

System: P388 leukemia ip, CD2F1 mice, survival T/C
Assay: NCI In Vivo Anticancer Drug Screen. Data for tumor model P388 Leukemia (intraperitoneal) in CD2F1 (CDF1) mice
Conditions: T/C endpoint: median survival time, higher T/C = longer survival
[1] = dose: 8.0 mg/kg/injection, schedule: Q01DX009 (ip), vehicle: water

N[C@@H](Cc1ccc(N(CCCl)CCCl)cc1)C(=O)O
T/C (dose: 4.0 mg/kg/injection, schedule: Q01DX005 (ip), vehicle: saline, evaluated on day 20): 192 % of control | T/C (dose: 4.0 mg/kg/injection, schedule: Q01DX005 (ip), vehicle: saline, evaluated on day 30): 267 and 270 % of control | T/C (dose: 4.0 mg/kg/injection, schedule: Q01DX005 (ip), vehicle: saline, evaluated on day 45): 346 % of control | T/C (dose: 4.0 mg/kg/injection, schedule: Q01DX009 (ip), vehicle: water): 105, 120, 128, 207, 250 % of control | survivor count (dose: 4.0 mg/kg/injection, schedule: Q03HX008 (ip), vehicle: saline): 9 of 10, 10 of 10, 6 of 6 | T/C (dose: 4.17 mg/kg/injection, schedule: Q01DX009 (ip), vehicle: saline): 130 % of control | survivor count (dose: 5.0 mg/kg/injection, schedule: Q01DX001 (ip), vehicle: Klucel (hydroxypropylcellulose) (HPC)): 6 of 6 | T/C (dose: 5.0 mg/kg/injection, schedule: Q01DX001 (ip), vehicle: water, evaluated on day 30): 166, 168, 172, 187 % of control | T/C (dose: 5.0 mg/kg/injection, schedule: Q01DX001 (ip), vehicle: water, evaluated on day 35): 218 % of control | T/C (dose: 5.0 mg/kg/injection, schedule: Q01DX001 (iv), vehicle: saline): 142 % of control | T/C (dose: 5.0 mg/kg/injection, schedule: Q04DX003 (ip), vehicle: saline, evaluated on day 30): 252 and 265 % of control | T/C (dose: 5.0 mg/kg/injection, schedule: Q04DX003 (ip), vehicle: saline, evaluated on day 45): 213 and 305 % of control | T/C (dose: 5.0 mg/kg/injection, schedule: Q04DX003 (ip), vehicle: saline, evaluated on day 50): 315 % of control | T/C (dose: 5.0 mg/kg/injection, schedule: Q04DX003 (ip), vehicle: saline, evaluated on day 60): 234 and 284 % of control | T/C (dose: 5.0 mg/kg/injection, schedule: Q04DX003 (ip), vehicle: water, evaluated on day 30): 117, 132, 150, 166, 210, 214, 225, 232, 242, 248, 250, 254, 260, 265, 272 % of control (2×) | T/C (dose: 5.0 mg/kg/injection, schedule: Q04DX003 (ip), vehicle: water, evaluated on day 35): 206 and 257 % of control | T/C (dose: 5.0 mg/kg/injection, schedule: Q04DX003 (ip), vehicle: water, evaluated on day 40): 199, 226, 250, 252 (2×), 329, 366 % of control | T/C (dose: 5.0 mg/kg/injection, schedule: Q04DX003 (ip), vehicle: water, evaluated on day 45): 272 % of control | T/C (dose: 6.7 mg/kg/injection, schedule: Q01DX001 (ip), vehicle: saline): 140 % of control | T/C (dose: 7.5 mg/kg/injection, schedule: Q04DX003 (ip), vehicle: saline, evaluated on day 45): 276 and 394 % of control | T/C (dose: 7.5 mg/kg/injection, schedule: Q04DX003 (ip), vehicle: saline, evaluated on day 60): 297 and 362 % of control | T/C (dose: 7.5 mg/kg/injection, schedule: Q04DX003 (ip), vehicle: water, evaluated on day 30): 123, 190, 194, 223, 242, 254, 263, 264, 264 [5 of 6 alive], 270, 272, 291 % of control | T/C (dose: 7.5 mg/kg/injection, schedule: Q04DX003 (ip), vehicle: water, evaluated on day 35): 250 and 309 % of control | T/C (dose: 7.5 mg/kg/injection, schedule: Q04DX003 (ip), vehicle: water, evaluated on day 45): 300 and 308 % of control | T/C (dose: 7.5 mg/kg/injection, schedule: Q04DX003 (ip), vehicle: water, evaluated on day 60): 211 % of control | T/C (dose: 8.0 mg/kg/injection, schedule: Q01DX005 (ip), vehicle: saline, evaluated on day 30): 270 % of control | T/C (dose: 8.0 mg/kg/injection, schedule: Q01DX005 (ip), vehicle: saline, evaluated on day 45): 110 % of control | survivor count (dose: 8.0 mg/kg/injection, schedule: Q01DX005 (ip), vehicle: saline): 6 of 6 (2×) | survivor count (dose: 8.0 mg/kg/injection, schedule: Q01DX009 (ip), vehicle: saline): 10 of 10 | T/C [1]: 110 % of control | survivor count [1]: 6 of 6 | survivor count (dose: 8.0 mg/kg/injection, schedule: Q03HX008 (ip), vehicle: saline): 2 of 10, 2 of 6, 3 of 6, 9 of 10, 6 of 6 | survivor count (dose: 10.0 mg/kg/injection, schedule: Q01DX001 (ip), vehicle: Klucel (hydroxypropylcellulose) (HPC)): 6 of 6 | T/C (dose: 10.0 mg/kg/injection, schedule: Q01DX001 (ip), vehicle: saline, evaluated on day 11): 194 % of control | T/C (dose: 10.0 mg/kg/injection, schedule: Q01DX001 (ip), vehicle: saline, evaluated on day 30): 248 % of control | T/C (dose: 10.0 mg/kg/injection, schedule: Q01DX001 (ip), vehicle: saline, evaluated on day 44): 196 % of control | T/C (dose: 10.0 mg/kg/injection, schedule: Q01DX001 (ip), vehicle: saline, evaluated on day 45): 171, 244, 245, 250, 270, 281, 306, 321, 420 % of control | T/C (dose: 10.0 mg/kg/injection, schedule: Q01DX001 (ip), vehicle: saline, evaluated on day 47): 252 % of control | T/C (dose: 10.0 mg/kg/injection, schedule: Q01DX001 (ip), vehicle: saline, evaluated on day 60): 195, 211, 245 [9 of 10 alive], 262, 276, 405, 560, 582 % of control | T/C (dose: 10.0 mg/kg/injection, schedule: Q01DX001 (ip), vehicle: water, evaluated on day 30): 175, 176, 204, 235 % of control
